Measured values: the supplement of paper PMC4604168 (melanoma cell lines)
This is one part of the list. Repeats are few or missing, and single values can be far off.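 Cells were imaged in 1,536-well plates, and nuclei stained with an antibody against cleaved PARP were counted against all DNA-stained nuclei to give the apoptosis fraction. Screening doses were chosen to leave most cells alive, and resting and induced cleaved-PARP levels differ strongly between cell lines.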

Experiments:
Test in all cases: cleaved PARP positive nuclei fraction relative to DMSO control; melanoma cells; higher = more apoptosis
Settings in all cases: library dose: low library concentration; 72 h
MZ2-MEL = tested on: MZ2-MEL
MeWo = tested on: MeWo
RPMI7951 = tested on: RPMI7951
RVH-421 = tested on: RVH-421
SkMel28 = tested on: SkMel28
SkMel2 = tested on: SkMel2
SkMel30 = tested on: SkMel30
SkMel5 = tested on: SkMel5
UACC257 = tested on: UACC257
UACC62 = tested on: UACC62

| Compound | cleaved PARP positive nuclei fraction (MZ2-MEL) | cleaved PARP positive nuclei fraction (MeWo) | cleaved PARP positive nuclei fraction (RPMI7951) | cleaved PARP positive nuclei fraction (RVH-421) | cleaved PARP positive nuclei fraction (SkMel28) | cleaved PARP positive nuclei fraction (SkMel2) | cleaved PARP positive nuclei fraction (SkMel30) | cleaved PARP positive nuclei fraction (SkMel5) | cleaved PARP positive nuclei fraction (UACC257) | cleaved PARP positive nuclei fraction (UACC62) |
| --- | --- | --- | --- | --- | --- | --- | --- | --- | --- | --- |
| CS(=O)(=O)c1ccc(C(=O)Nc2ccc(Cl)c(-c3ccccn3)c2)c(Cl)c1 [vismodegib] + C[C@@H]1CCN(C(=O)CC#N)C[C@@H]1N(C)c1ncnc2[nH]ccc12 [CP690550] (first compound 1 µM, partner dose 1 µM) | 99.7% | 57.3% | 106% | 57.8% | 58.3% | 92% | 62.8% | 108% | 34.6% | 27.3% |
| CC(=O)O[C@@]12CO[C@@H]1C[C@H](O)[C@@]1(C)C(=O)[C@H](O)C3=C(C)[C@@H](OC(=O)[C@H](O)[C@@H](NC(=O)OC(C)(C)C)c4ccccc4)C[C@@](O)([C@@H](OC(=O)c4ccccc4)[C@H]21)C3(C)C [Docetaxel] + Cn1cncc1[C@@](N)(c1ccc(Cl)cc1)c1ccc2c(c1)c(-c1cccc(Cl)c1)cc(=O)n2C [tipifarnib] (first compound 0.0001 µM, partner dose 0.01 µM) | 1030% | 496% | 296% | 102% | 249% | 1030% | 203% | 92.8% | 284% | 342% |
| CCN(CC)CCNC(=O)c1c(C)[nH]c(/C=C2\C(=O)Nc3ccc(F)cc32)c1C [sunitinib] + NCC(=O)Nc1ccc(-n2nc(C(F)(F)F)cc2-c2ccc3c(ccc4ccccc43)c2)cc1 [OSU03012] (first compound 0.4 µM, partner dose 1 µM) | 110% | 93.7% | 134% | 21.4% | 46.9% | 209% | 305% | 112% | 178% | 81.7% |
| NC(=O)c1ccc(N(C(N)=O)c2c(F)cccc2F)nc1-c1ccc(F)cc1F + OCCn1cc(-c2cnc3nnn(Cc4ccc5ncccc5c4)c3n2)cn1 [PF04217903] (first compound 0.4 µM, partner dose 1 µM) | 88.3% | 101% | 226% | 30.1% | 58.7% | 152% | 58.1% | 63.4% | 109% | 178% |
| CN(c1ncccc1CNc1nc(Nc2ccc3c(c2)CC(=O)N3)ncc1C(F)(F)F)S(C)(=O)=O + N#Cc1c(O)c2c(-c3ccc(-c4ccccc4O)cc3)csc2[nH]c1=O [A769662] (first compound 0.08 µM, partner dose 2 µM) | 196% | 74.9% | 183% | 78.9% | 48.1% | 179% | 99.6% | 88.5% | 82.1% | 79% |
| Cn1cnc2c(F)c(Nc3ccc(Br)cc3Cl)c(C(=O)NOCCO)cc21 [selumetinib] + Cn1cncc1[C@@](N)(c1ccc(Cl)cc1)c1ccc2c(c1)c(-c1cccc(Cl)c1)cc(=O)n2C [tipifarnib] (first compound 0.015 µM, partner dose 0.01 µM) | 501% | 37.8% | 78.4% | 106% | 201% | 175% | 108% | 335% | 426% | 343% |
| NC(=O)c1ccc(N(C(N)=O)c2c(F)cccc2F)nc1-c1ccc(F)cc1F + O=S(=O)(c1ccccc1)N(CC(F)(F)F)c1ccc(C(O)(C(F)(F)F)C(F)(F)F)cc1 [T0901317] (first compound 0.4 µM, partner dose 1.4 µM) | 136% | 38.6% | 111% | 61.6% | 86.9% | 113% | 42.2% | 84.5% | 44.4% | 286% |
| Cn1cnc2c(F)c(Nc3ccc(Br)cc3Cl)c(C(=O)NOCCO)cc21 [selumetinib] + O=C(O)c1ccc(-c2c[nH]c3ncc(-c4ccccc4)cc23)cc1C1CCCC1 [GSK650394] (first compound 0.015 µM, partner dose 0.16 µM) | 267% | 128% | 40.6% | 43.5% | 251% | 159% | 96.9% | 59.7% | 55% | 105% |
| CS(=O)(=O)c1ccc(C(=O)Nc2ccc(Cl)c(-c3ccccn3)c2)c(Cl)c1 [vismodegib] + CCN(CC)CCCCNc1ncc2cc(-c3cc(OC)cc(OC)c3)c(NC(=O)NC(C)(C)C)nc2n1 [PD173074] (first compound 1 µM, partner dose 0.1 µM) | 25.3% | 83.1% | 60.4% | 233% | 118% | 86.7% | 36.1% | 31.6% | 149% | 56.7% |
| NC1(c2ccc(-c3nc4ccn5c(=O)[nH]nc5c4cc3-c3ccccc3)cc2)CCC1 + Oc1cc(-c2nc(-c3ccccc3)[nH]c2-c2ccncc2)ccc1Cl [L779450] (first compound 0.4 µM, partner dose 0.2 µM) | 20.2% | 37.2% | 33% | 157% | 191% | 90% | 28% | 65.2% | 271% | 161% |
| C[C@]1(O)C[C@@H](c2nc(-c3ccc4ccc(-c5ccccc5)nc4c3)c3c(N)nccn32)C1 + O=C(CCCCCCC(=O)Nc1ccccc1)NO [vorinostat] (first compound 0.4 µM, partner dose 0.08 µM) | 258% | 53.9% | 49% | 44.6% | 90.9% | 86.8% | 71.4% | 194% | 257% | 368% |
| C[C@@H](N)c1ccc(C(=O)Nc2ccnc3[nH]ccc23)cc1 + N#Cc1c(O)c2c(-c3ccc(-c4ccccc4O)cc3)csc2[nH]c1=O [A769662] (first compound 0.4 µM, partner dose 2 µM) | 169% | 105% | 90% | 220% | 612% | 189% | 60.2% | 104% | 366% | 369% |
| CN(c1ncccc1CNc1nc(Nc2ccc3c(c2)CC(=O)N3)ncc1C(F)(F)F)S(C)(=O)=O + CC1(C)NC(=O)N(c2ccc([N+](=O)[O-])c(C(F)(F)F)c2)C1=O [nilutamide] (first compound 0.08 µM, partner dose 1 µM) | 121% | 152% | 253% | 76.1% | 60.3% | 82.4% | 56.5% | 98.1% | 83.2% | 118% |
| C[C@@H](N)c1ccc(C(=O)Nc2ccnc3[nH]ccc23)cc1 + O=C1NC(=O)/C(=C/c2ccc(-c3ccc(F)cc3O)o2)S1 [AS252424] (first compound 0.4 µM, partner dose 1 µM) | 375% | 140% | 344% | 59.5% | 267% | 132% | 49.2% | 167% | 208% | 348% |
| CCN(CC)CCNC(=O)c1c(C)[nH]c(/C=C2\C(=O)Nc3ccc(F)cc32)c1C [sunitinib] + COc1cc(Nc2ncc(F)c(Nc3ccc4c(n3)NC(=O)C(C)(C)O4)n2)cc(OC)c1OC [Tamatinib] (first compound 0.4 µM, partner dose 0.4 µM) | 71.5% | 43.8% | 69% | 118% | 94.9% | 125% | 81.4% | 31.1% | 48.9% | 122% |
| CS(=O)(=O)c1ccc(C(=O)Nc2ccc(Cl)c(-c3ccccn3)c2)c(Cl)c1 [vismodegib] + CCc1ccc(CCOc2ccc(CC3SC(=O)NC3=O)cc2)nc1 [pioglitazone] (first compound 1 µM, partner dose 2 µM) | 106% | 108% | 30.8% | 62.7% | 166% | 42% | 37.4% | 71.5% | 161% | 98% |
| CC1(C)CCC(c2ccc(Cl)cc2)=C(CN2CCN(c3ccc(C(=O)NS(=O)(=O)c4ccc(N[C@H](CCN5CCOCC5)CSc5ccccc5)c(S(=O)(=O)C(F)(F)F)c4)cc3)CC2)C1 + O=C(O)c1ccc(-c2c[nH]c3ncc(-c4ccccc4)cc23)cc1C1CCCC1 [GSK650394] (first compound 0.4 µM, partner dose 0.16 µM) | 397% | 863% | 152% | 47.3% | 22.7% | 192% | 401% | 510% | 143% | 44.5% |
| C[C@@H](N)c1ccc(C(=O)Nc2ccnc3[nH]ccc23)cc1 + O=C(Nc1cccc(Cl)c1)Nc1ncc(CCNc2ncnc3ccsc23)s1 [SNS314] (first compound 0.4 µM, partner dose 0.0008 µM) | 249% | 250% | 163% | 86.3% | 52.8% | 69.7% | 58.9% | 110% | 189% | 107% |
| CS(=O)(=O)c1ccc(C(=O)Nc2ccc(Cl)c(-c3ccccn3)c2)c(Cl)c1 [vismodegib] + OCCn1cc(-c2cnc3nnn(Cc4ccc5ncccc5c4)c3n2)cn1 [PF04217903] (first compound 1 µM, partner dose 1 µM) | 175% | 78% | 111% | 121% | 64.6% | 118% | 66.6% | 65.6% | 185% | 31% |
| CC(=O)O[C@@]12CO[C@@H]1C[C@H](O)[C@@]1(C)C(=O)[C@H](O)C3=C(C)[C@@H](OC(=O)[C@H](O)[C@@H](NC(=O)OC(C)(C)C)c4ccccc4)C[C@@](O)([C@@H](OC(=O)c4ccccc4)[C@H]21)C3(C)C [Docetaxel] + N#Cc1c(O)c2c(-c3ccc(-c4ccccc4O)cc3)csc2[nH]c1=O [A769662] (first compound 0.0001 µM, partner dose 2 µM) | 667% | 707% | 94.8% | 115% | 392% | 689% | 692% | 206% | 386% | 598% |
| Cn1sc(=O)n(Cc2ccccc2)c1=O + CCN(CC)CCCCNc1ncc2cc(-c3cc(OC)cc(OC)c3)c(NC(=O)NC(C)(C)C)nc2n1 [PD173074] (first compound 0.4 µM, partner dose 0.1 µM) | 68.9% | 48.8% | 68.3% | 41.1% | 95.5% | 29.5% | 334% | 72.5% | 185% | 129% |
| CS(=O)(=O)c1ccc(C(=O)Nc2ccc(Cl)c(-c3ccccn3)c2)c(Cl)c1 [vismodegib] + Oc1nc(-c2ccc(C(F)(F)F)cc2)nc2c1CSCC2 [XAV939] (first compound 1 µM, partner dose 2 µM) | 100% | 112% | 157% | 94.7% | 117% | 104% | 35.3% | 94.3% | 72.9% | 120% |

An excerpt of these results, with tabs:
Compound	cleaved PARP positive nuclei fraction (MZ2-MEL)	cleaved PARP positive nuclei fraction (MeWo)	cleaved PARP positive nuclei fraction (RPMI7951)	cleaved PARP positive nuclei fraction (RVH-421)	cleaved PARP positive nuclei fraction (SkMel28)	cleaved PARP positive nuclei fraction (SkMel2)	cleaved PARP positive nuclei fraction (SkMel30)	cleaved PARP positive nuclei fraction (SkMel5)	cleaved PARP positive nuclei fraction (UACC257)	cleaved PARP positive nuclei fraction (UACC62)
CC(=O)O[C@@]12CO[C@@H]1C[C@H](O)[C@@]1(C)C(=O)[C@H](O)C3=C(C)[C@@H](OC(=O)[C@H](O)[C@@H](NC(=O)OC(C)(C)C)c4ccccc4)C[C@@](O)([C@@H](OC(=O)c4ccccc4)[C@H]21)C3(C)C [Docetaxel] + Cn1cncc1[C@@](N)(c1ccc(Cl)cc1)c1ccc2c(c1)c(-c1cccc(Cl)c1)cc(=O)n2C [tipifarnib] (first compound 0.0001 µM, partner dose 0.01 µM)	1030%	496%	296%	102%	249%	1030%	203%	92.8%	284%	342%
CCN(CC)CCNC(=O)c1c(C)[nH]c(/C=C2\C(=O)Nc3ccc(F)cc32)c1C [sunitinib] + NCC(=O)Nc1ccc(-n2nc(C(F)(F)F)cc2-c2ccc3c(ccc4ccccc43)c2)cc1 [OSU03012] (first compound 0.4 µM, partner dose 1 µM)	110%	93.7%	134%	21.4%	46.9%	209%	305%	112%	178%	81.7%
